We go through one molecule from paper PMC3834253, “Attenuation of VEGFR-2 Expression by sFlt-1 and Low Oxygen in Human Placenta” (PLoS ONE, 2013).

The chains behind the UniProt entries cited, without tags or fusion partners. Residues count along the entry.
UniProt P35968, residues 20-1356: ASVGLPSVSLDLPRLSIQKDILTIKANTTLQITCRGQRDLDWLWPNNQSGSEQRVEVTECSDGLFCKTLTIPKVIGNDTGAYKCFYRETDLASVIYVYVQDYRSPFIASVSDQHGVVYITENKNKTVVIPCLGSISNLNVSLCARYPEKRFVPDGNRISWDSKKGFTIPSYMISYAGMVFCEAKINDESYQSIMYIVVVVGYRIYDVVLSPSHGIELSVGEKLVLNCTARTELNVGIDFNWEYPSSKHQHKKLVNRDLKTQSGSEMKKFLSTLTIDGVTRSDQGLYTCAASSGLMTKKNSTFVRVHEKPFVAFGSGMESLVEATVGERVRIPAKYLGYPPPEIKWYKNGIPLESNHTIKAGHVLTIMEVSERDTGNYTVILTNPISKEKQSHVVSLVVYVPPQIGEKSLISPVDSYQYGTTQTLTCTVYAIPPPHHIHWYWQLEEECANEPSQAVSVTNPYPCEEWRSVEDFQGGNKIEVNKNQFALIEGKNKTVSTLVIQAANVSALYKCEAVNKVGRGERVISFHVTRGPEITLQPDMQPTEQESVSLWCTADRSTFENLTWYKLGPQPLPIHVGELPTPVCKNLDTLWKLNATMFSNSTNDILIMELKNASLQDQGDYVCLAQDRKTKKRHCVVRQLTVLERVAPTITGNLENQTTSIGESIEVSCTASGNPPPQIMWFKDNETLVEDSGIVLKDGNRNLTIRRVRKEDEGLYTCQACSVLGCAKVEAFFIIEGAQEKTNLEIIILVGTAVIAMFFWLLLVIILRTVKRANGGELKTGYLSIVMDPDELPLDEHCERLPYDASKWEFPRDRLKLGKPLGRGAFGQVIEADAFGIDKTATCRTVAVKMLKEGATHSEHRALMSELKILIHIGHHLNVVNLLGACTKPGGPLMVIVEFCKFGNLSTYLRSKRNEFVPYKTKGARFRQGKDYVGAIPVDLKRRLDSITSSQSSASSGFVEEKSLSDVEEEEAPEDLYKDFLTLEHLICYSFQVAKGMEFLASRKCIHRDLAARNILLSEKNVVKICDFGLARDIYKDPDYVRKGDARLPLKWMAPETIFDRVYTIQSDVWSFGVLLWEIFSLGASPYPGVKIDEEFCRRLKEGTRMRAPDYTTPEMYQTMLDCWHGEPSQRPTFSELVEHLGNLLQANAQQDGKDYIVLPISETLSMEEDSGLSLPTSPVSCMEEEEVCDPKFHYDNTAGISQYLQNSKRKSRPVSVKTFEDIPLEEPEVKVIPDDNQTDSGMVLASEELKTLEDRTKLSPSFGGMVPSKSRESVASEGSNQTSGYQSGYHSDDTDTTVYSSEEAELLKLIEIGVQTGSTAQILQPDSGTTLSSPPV

Results are given in words; binding and its absence hold for the method and conditions named. In cells and extracts the contact can be indirect. Some entries that bind do so weakly or less than the wild type.

Test [1] deals with Vascular endothelial growth factor receptor 2 (VEGFR-2) (human (endogenous in placenta)) (UniProt P35968). The experiment in a line: co-IP; age-matched preterm control (PTC) placental lysates, 500 ug protein, precipitated with monoclonal VEGFR-2 antibody overnight at 4 C, washed in RIPA buffer, blotted for sFlt-1.
For test [2] the target is unchanged. The experiment in a line: co-IP; human placental tissue lysates (8, 12 and 35 weeks of gestation; preeclamptic placentae), 500 ug protein, precleared with Protein-A Agarose, precipitated with 1 ug monoclonal VEGFR-2 antibody overnight at 4 C, washed 3 times in ice cold RIPA buffer, blotted for sFlt-1.

B1: soluble VEGF receptor-1 (sFlt-1), 105 kDa species (sFlt-13) (natural protein, human (endogenous in placenta), UniProt P17948-2 27-687, looked up)
chain: SKLKDPELSLKGTQHIMQAGQTLHLQCRGEAAHKWSLPEMVSKESERLSITKSACGRNGKQFCSTLTLNTAQANHTGFYSCKYLAVPTSKKKETESAIYIFISDTGRPFVEMYSEIPEIIHMTEGRELVIPCRVTSPNITVTLKKFPLDTLIPDGKRIIWDSRKGFIISNATYKEIGLLTCEATVNGHLYKTNYLTHRQTNTIIDVQISTPRPVKLLRGHTLVLNCTATTPLNTRVQMTWSYPDEKNKRASVRRRIDQSNSHANIFYSVLTIDKMQNKDKGLYTCRVRSGPSFKSVNTSVHIYDKAFITVKHRKQQVLETVAGKRSYRLSMKVKAFPSPEVVWLKDGLPATEKSARYLTRGYSLIIKDVTEEDAGNYTILLSIKQSNVFKNLTATLIVNVKPQIYEKAVSSFPDPALYPLGSRQILTCTAYGIPQPTIKWFWHPCNHNHSEARCDFCSNNEESFILDADSNMGNRIESITQRMAIIEGKNKMASTLVVADSRISGIYICIASNKVGTVGRNISFYITDVPNGFHVNLEKMPTEGEDLKLSCTVNKFLYRDVTWILLRTVNNRTMHYSISKQKMAITKEHSITLNLTIMNVSLQDSGTYACRARNVYTGEEILQKKEITIRGEHCNKKAVFSRISKFKSTRNDCTTQSNVKH
notes: sFlt-1, truncated soluble splice variant of VEGFR-1 (six extracellular IgG like domains with a unique C-terminus), human; isoform assigned by the authors from the band size; Detected by blot with an sFlt-1 antibody (AF321, R&D Systems) in VEGFR-2 immunoprecipitates; also called soluble VEGFR-1; source: endogenous, human placental tissue lysate
For B1, the binding entry in test [1] was “binds weakly”; in test [2], “binds”.
